The subject of this test is P388 leukemia ip, CD2F1 mice, survival T/C. The experiment in a line: NCI In Vivo Anticancer Drug Screen. Data for tumor model P388 Leukemia (intraperitoneal) in CD2F1 (CDF1) mice. The following applies: T/C endpoint: median survival time, higher T/C = longer survival.
The mark [1] stands for this setting: dose: 0.62 mg/kg/injection, schedule: Q01DX009 (ip), vehicle: Klucel (hydroxypropylcellulose) (HPC).
Setting [2] is: dose: 1.25 mg/kg/injection, schedule: Q01DX009 (ip), vehicle: Klucel (hydroxypropylcellulose) (HPC).
Setting [3] is: dose: 200.0 mg/kg/injection, schedule: Q01DX009 (ip), vehicle: Klucel (hydroxypropylcellulose) (HPC).
The mark [4] stands for this setting: dose: 100.0 mg/kg/injection, schedule: Q04DX002 (ip), vehicle: saline with Tween-80.
[5] abbreviates: dose: 200.0 mg/kg/injection, schedule: Q04DX002 (ip), vehicle: saline with Tween-80.
[6] abbreviates: dose: 100.0 mg/kg/injection, schedule: Q01DX009 (ip), vehicle: saline.
The mark [7] stands for this setting: dose: 25.0 mg/kg/injection, schedule: Q01DX009 (ip), vehicle: saline with Tween-80.
The mark [8] stands for this setting: dose: 200.0 mg/kg/injection, schedule: Q01DX005 (ip), vehicle: saline with Tween-80.
[9] abbreviates: dose: 100.0 mg/kg/injection, schedule: Q01DX009 (ip), vehicle: saline with Tween-80.

From PubChem BioAssay AID330 (DTP/NCI, 2004) come the findings set out here.

Structures are written as SMILES. The list does not hold the whole screen: it gathers tests that were run many times, whatever their T/C, doses with no T/C, and many T/C values between a quarter and a half above the control. Other doses and runs of a compound stand elsewhere. T/C is the treated group as % of the vehicle group. Some entries give survivors of the animals treated and no T/C: the source files T/C as zero there, which appears to mark a toxic dose or a test without result, not a measured value. Some doses without a T/C left all or most animals alive at the check, yet need not have been tolerated: the source hardly ever lists a survival T/C far under the control, and the zero likely stands for such cases as well. Counts of survivors are from the toxicity check (mostly the fifth day) where no day follows; animals may have died later. Schedules are NCI's codes, read here as Q, the interval in days (D) or hours (H), X, the number of doses. Some entries were tested several times; the values are given in rising order. Some molecules as drawn cover several salts, stereoisomers or complexes of the source; a dose is that of the sample tested. Signs of the kind (2×) say how often a value occurs here. Where survival is the endpoint, the PubChem record calls one and a half times the control and up active, and a quarter to a half above the control has no call in these data; cut-offs in other NCI protocols can differ. Some T/C values carry the count of animals alive at the toxicity check (mostly the fifth day); where none is given, no animal had died by that day.

For the compound `COc1cc2c(c(OC)c1OC)-c1ccc(SC)c(=O)cc1[C@@H](NC(=O)C(F)(F)F)CC2`, the T/C by setting is: (dose: 0.31 mg/kg/injection, schedule: Q01DX009 (ip), vehicle: Klucel (hydroxypropylcellulose) (HPC)) 136 and 139 % of control; (dose: 0.32 mg/kg/injection, schedule: Q01DX009 (ip), vehicle: Klucel (hydroxypropylcellulose) (HPC)) 126 % of control; under setting [1], 148 % of control; (dose: 0.63 mg/kg/injection, schedule: Q01DX009 (ip), vehicle: Klucel (hydroxypropylcellulose) (HPC)) 143 % of control; under setting [2], 136 % of control. The survivor count is, setting by setting: under setting [1], 3 of 6; under setting [2], 4 of 6 and 5 of 6; (dose: 2.5 mg/kg/injection, schedule: Q01DX009 (ip), vehicle: Klucel (hydroxypropylcellulose) (HPC)) 0 of 6; (dose: 5.0 mg/kg/injection, schedule: Q01DX009 (ip), vehicle: Klucel (hydroxypropylcellulose) (HPC)) 0 of 6; (dose: 10.0 mg/kg/injection, schedule: Q01DX009 (ip), vehicle: Klucel (hydroxypropylcellulose) (HPC)) 0 of 6.

In the case of `COc1ccc([N+](=O)[O-])c(C=O)c1OS(=O)(=O)c1ccc(C)c([N+](=O)[O-])c1`, the survivor count (dose: 50.0 mg/kg/injection, schedule: Q01DX009 (ip), vehicle: distilled water + Tween-80) is given as 6 of 6.

`O=c1ccc2cc3c(c(O)c2o1)OC=CC3`: the survivor count under setting [3] is on record as 3 of 6.

For `CNCCC(Oc1ccccc1OC)c1ccccc1` (centres undefined), the survivor count under setting [4] is 0 of 6; the survivor count (dose: 100.0 mg/kg/injection, schedule: Q04DX002 (ip), vehicle: saline) is 1 of 6 and 2 of 6; the survivor count under setting [5] is recorded as 0 of 6; the survivor count (dose: 200.0 mg/kg/injection, schedule: Q04DX002 (ip), vehicle: saline) is recorded as 0 of 6; the survivor count (dose: 400.0 mg/kg/injection, schedule: Q04DX002 (ip), vehicle: saline) is 0 of 6.

Take `O=C(C[n+]1ccccc1)c1ccccc1`: the survivor count under setting [6] is given as 1 of 6.

For `O=C1C(NCC(O)CO)=C(N2CC2)C(=O)C(NCC(O)CO)=C1N1CC1` (centres undefined), where the note is “dose: 6.0 mg/kg/injection, schedule: Q01DX009 (ip), vehicle: saline”, the survivor count is 6 of 6.

As to `O=C(NC(Cc1ccccc1)C(=O)CCl)OCc1ccccc1` (centres undefined), the survivor count is 2 of 6 (dose: 100.0 mg/kg/injection, schedule: Q01DX009 (ip), vehicle: other); 1 of 6 (dose: 200.0 mg/kg/injection, schedule: Q01DX009 (ip), vehicle: other); 0 of 6 (dose: 400.0 mg/kg/injection, schedule: Q01DX009 (ip), vehicle: other).

With `Br[C](Br)(Br)[Hg][c]1ccccc1`, the survivor count under setting [7] was 4 of 6.

In the case of `CSC(SC)=C1C(=O)NC(Cc2ccccc2)C1=O` (centres undefined), the survivor count (dose: 50.0 mg/kg/injection, schedule: Q01DX005 (ip), vehicle: saline with Tween-80) is given as 3 of 6; the survivor count (dose: 100.0 mg/kg/injection, schedule: Q01DX005 (ip), vehicle: saline with Tween-80) is recorded as 0 of 6; the survivor count under setting [8] is given as 0 of 6.

As for `O=C1OCCC12C(c1ccccc1)C1(CCOC1=O)C2c1ccccc1` (centres undefined), the survivor count is reported as 6 of 6 (dose: 15.0 mg/kg/injection, schedule: Q01DX005 (ip), vehicle: Klucel (hydroxypropylcellulose) (HPC)); 6 of 6 (dose: 30.0 mg/kg/injection, schedule: Q01DX005 (ip), vehicle: Klucel (hydroxypropylcellulose) (HPC)); 6 of 6 (dose: 60.0 mg/kg/injection, schedule: Q01DX005 (ip), vehicle: Klucel (hydroxypropylcellulose) (HPC)); 5 of 6 (dose: 120.0 mg/kg/injection, schedule: Q01DX005 (ip), vehicle: Klucel (hydroxypropylcellulose) (HPC)).

For the compound `N#CC1=C(N)OC(C2CC2)=C(C#N)C1c1ccco1` (centres undefined), for the setting “dose: 240.0 mg/kg/injection, schedule: Q01DX005 (ip), vehicle: Klucel (hydroxypropylcellulose) (HPC)”, the survivor count is reported as 6 of 6.

Take `CC1=NOC(=O)/C1=C/c1ccc(Cl)c(Cl)c1`: the survivor count under setting [8] was 0 of 6.

Regarding `O=S1C2CCC(Br)C1CCC2Br` (centres undefined), the survivor count is reported as 3 of 6 (dose: 3.12 mg/kg/injection, schedule: Q04DX002 (ip), vehicle: saline + alcohol); 0 of 6 (dose: 6.25 mg/kg/injection, schedule: Q04DX002 (ip), vehicle: saline + alcohol); 0 of 6 (dose: 12.5 mg/kg/injection, schedule: Q04DX002 (ip), vehicle: saline + alcohol); 0 of 6 (dose: 25.0 mg/kg/injection, schedule: Q04DX002 (ip), vehicle: saline + alcohol); 0 of 6 (dose: 50.0 mg/kg/injection, schedule: Q04DX002 (ip), vehicle: saline + alcohol); 0 of 6 (dose: 100.0 mg/kg/injection, schedule: Q04DX002 (ip), vehicle: saline + alcohol). Also, the survivor count is 0 of 6 (dose: 200.0 mg/kg/injection, schedule: Q04DX002 (ip), vehicle: saline + alcohol) and 0 of 6 (dose: 400.0 mg/kg/injection, schedule: Q04DX002 (ip), vehicle: saline + alcohol).

As for `Cc1cc(O)c(C=Nc2ccc3ccccc3c2)c2c1C(=O)Oc1c(CO)c(O)c(C(=O)O)c(C=Nc3ccc4ccccc4c3)c1O2`, the survivor count (dose: 25.0 mg/kg/injection, schedule: Q01DX005 (ip), vehicle: Klucel (hydroxypropylcellulose) (HPC)) is given as 6 of 6 and the survivor count (dose: 50.0 mg/kg/injection, schedule: Q01DX005 (ip), vehicle: Klucel (hydroxypropylcellulose) (HPC)) is given as 6 of 6.

With `CC1=CC(=O)[C@@H](O)[C@]2(C)[C@H]3[C@@]4(O)OC[C@]35[C@H]([C@@H](C)[C@H]4O)[C@@H](O)C(=O)O[C@@H]5C[C@@H]12`, the survivor count (dose: 50.0 mg/kg/injection, schedule: Q01DX009 (ip), vehicle: saline) is given as 3 of 6.

`OC1CC2CCCCC2CC1c1ccccc1` (centres undefined): the T/C runs as follows: under setting [4], 138 % of control; under setting [5], 136 % of control.

Regarding `COC1=CC(=O)C(O)=C(CC2(C)C(C)CCC3(C)C2CCCC3(C)C)C1=O` (centres undefined), the survivor count under setting [3] is listed as 3 of 6.

For the compound `CNC(=O)OCc1c(COC(=O)NC)c(-c2ccc(OC)cc2)n(C)c1C`, the T/C runs as follows: (dose: 6.25 mg/kg/injection, schedule: Q01DX009 (ip), vehicle: distilled water + Tween-80) 135 % of control; (dose: 12.5 mg/kg/injection, schedule: Q01DX009 (ip), vehicle: distilled water + Tween-80) 135 and 138 % of control; (dose: 25.0 mg/kg/injection, schedule: Q01DX009 (ip), vehicle: distilled water + Tween-80) 141 and 145 % of control. Besides, the survivor count is 4 of 6 and 5 of 6 (dose: 100.0 mg/kg/injection, schedule: Q01DX009 (ip), vehicle: distilled water + Tween-80); 3 of 6 (dose: 200.0 mg/kg/injection, schedule: Q01DX009 (ip), vehicle: distilled water + Tween-80).

Regarding `CC(=O)c1c(O)c(C)c(O)c2c1OC1=CC(=O)C(C(C)=O)C(=O)C12C` (centres undefined), the T/C is 97, 100, 101, 112 % of control under setting [7]; 128 % of control (dose: 25.0 mg/kg/injection, schedule: Q01DX009 (ip), vehicle: saline); 96 [5 of 6 alive], 99, 100, 101, 102, 108, 113, 115 % of control (dose: 50.0 mg/kg/injection, schedule: Q01DX009 (ip), vehicle: saline with Tween-80); 107, 108, 118 [4 of 6 alive], 125, 125 [5 of 6 alive], 126 [5 of 6 alive], 141 % of control [5 of 6 alive] under setting [9]. The survivor count by setting is: under setting [9], 3 of 6; under setting [6], 2 of 3; (dose: 200.0 mg/kg/injection, schedule: Q01DX009 (ip), vehicle: saline with Tween-80) 0 of 3, 0 of 6 (3×), 3 of 6, 6 of 6; (dose: 200.0 mg/kg/injection, schedule: Q01DX009 (ip), vehicle: saline) 0 of 3.
